One molecule from publication PMC12462922 can be followed below.

The chains behind the UniProt entries cited, without tags or fusion partners.
UniProt Q91W98: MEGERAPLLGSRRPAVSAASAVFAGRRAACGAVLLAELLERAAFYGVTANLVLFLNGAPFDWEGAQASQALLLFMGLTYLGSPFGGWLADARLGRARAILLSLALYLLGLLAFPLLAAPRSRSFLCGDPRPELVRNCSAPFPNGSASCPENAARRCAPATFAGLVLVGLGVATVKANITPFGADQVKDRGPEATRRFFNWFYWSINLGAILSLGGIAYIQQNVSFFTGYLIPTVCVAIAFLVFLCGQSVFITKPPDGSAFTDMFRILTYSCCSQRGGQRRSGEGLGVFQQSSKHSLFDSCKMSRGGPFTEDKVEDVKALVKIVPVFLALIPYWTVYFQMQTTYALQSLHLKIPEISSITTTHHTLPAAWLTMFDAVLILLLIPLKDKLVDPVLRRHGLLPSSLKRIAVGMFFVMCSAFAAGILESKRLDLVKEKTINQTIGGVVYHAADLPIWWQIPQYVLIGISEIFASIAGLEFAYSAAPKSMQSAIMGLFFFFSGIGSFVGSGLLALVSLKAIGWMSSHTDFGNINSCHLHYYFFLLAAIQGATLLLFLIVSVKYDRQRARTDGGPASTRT

For experiment [1], the target named is T1, SLC15A3-HA (mouse) (UniProt Q8BPX9).
T1 sequence: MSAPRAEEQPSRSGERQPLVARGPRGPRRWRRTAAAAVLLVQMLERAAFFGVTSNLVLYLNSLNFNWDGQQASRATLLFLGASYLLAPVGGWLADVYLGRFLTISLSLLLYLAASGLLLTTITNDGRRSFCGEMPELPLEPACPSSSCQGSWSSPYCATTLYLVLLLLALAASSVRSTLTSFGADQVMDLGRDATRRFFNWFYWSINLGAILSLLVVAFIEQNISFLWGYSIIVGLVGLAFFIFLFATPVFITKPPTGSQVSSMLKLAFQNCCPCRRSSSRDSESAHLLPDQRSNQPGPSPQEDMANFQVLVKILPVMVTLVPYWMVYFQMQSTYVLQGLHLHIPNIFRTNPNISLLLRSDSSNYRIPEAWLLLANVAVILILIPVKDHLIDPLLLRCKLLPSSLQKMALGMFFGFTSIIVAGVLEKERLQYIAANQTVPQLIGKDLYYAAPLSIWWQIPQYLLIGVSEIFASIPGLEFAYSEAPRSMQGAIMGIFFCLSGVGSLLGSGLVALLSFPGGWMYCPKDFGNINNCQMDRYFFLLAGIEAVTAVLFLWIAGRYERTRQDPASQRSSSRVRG
The experiment is described as follows: co-IP; HEK293T cells co-transfected with plasmids encoding SLC15A3-HA, SLC15A4-FLAG and TASL-MYC; cell extracts; Pierce Crosslink Magnetic IP/Co-IP Kit; blots with antibodies against HA, MYC, FLAG.

Experiment [2] addresses SLC15A4-FLAG (mouse) (UniProt Q91W98). The experiment is described as above.

These are yes or no findings as the source states them, for the method shown. In cells and extracts the contact can be indirect. Some entries that bind do so weakly or less than the wild type. Tags and fused reporters may be left off the sequences shown.

B1: TASL-MYC (protein, UniProt Q9D3J9 1-298)
chain: MLSEGYLSGLTYWNDIHWNCASYNEPVAGDQGKETSSVAALSYSSVDETQVQSLYVSCKSSGKFISSVHARASQHSRSQSRTVLQANSNPVFESPTLAAVGICRDVIRETYLVPPSCKSICKNYNDLHIAGGQVMAINSVMANFPSESSFEDGPLLKSSEISLSMEDSTSTQLTELPLKPIQRYSSYWRITSIKEKSSLQMQKPISNAVLNEYLEQKVVELYKQYIMDTVFHDSSPTQILASEFIMTNVDQISLQVSKEKNLDTSKVKDIVISHLLQLVSSEISTPSLHISQYSNITP
As to B1, the binding result in experiment [1] and in experiment [2] was “binds” each time.
